Measurements reported in PMC11924328.

Amino acid sequences for entries named in this document (tags omitted). Residues count along the entry.
UniProt P08962, 2-238: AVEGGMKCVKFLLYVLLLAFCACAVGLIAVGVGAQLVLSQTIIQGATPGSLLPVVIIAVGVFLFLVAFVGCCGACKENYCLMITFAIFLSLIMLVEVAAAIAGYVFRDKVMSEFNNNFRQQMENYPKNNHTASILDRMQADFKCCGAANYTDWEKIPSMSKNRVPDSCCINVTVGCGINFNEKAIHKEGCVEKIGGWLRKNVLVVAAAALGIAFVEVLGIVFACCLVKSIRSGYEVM

Molecular target: CD63 on neutrophil-derived extracellular vesicles (NEVs) (human (peripheral blood neutrophils)) (UniProt P08962)
Test: RCA-MB detection of aptamer retained on NEVs after washing
Settings: 37 C, 1 h, 5 PBS washes, 95 C release, labeling state of aptamer not stated; native protein; single-stranded DNA

“CACCCCACCTCGCTCCCGTGACACTAATGCTA [CD63 apt (unlabeled)]”: binds.

For at least one entry, the source does not settle the construct or the ends of the probe. At least one verdict rests on a figure or table, not on a statement of the authors.
